Test results taken from US7217722B2 (Kirin Beer Kabushiki Kaisha, priority 2000, dated 2007).
At least one read-out could not be matched to a standard name with certainty.

Tested on: spontaneously hypertensive male rats (SHR)
Assay: Antihypertensive activity in spontaneously hypertensive rats
Assay type: in vivo, rat
Conditions: 30 mg/kg oral, systolic pressure 3 to 4 hr after administration, mean ± SEM of 3 to 4 SHRs
Procedure: This test was carried out as follows. A test compound was dissolved in purified water, or alternatively the test compound was suspended in a 5% aqueous sodium carboxymethylcellulose solution. The solution or the suspension was forcibly administered into the gaster of SHR through an oral probe. The systolic pressure of SHR was measured with a bloodless sphygmometer (BP-98A, Softron Co.) immediately before the administration of the test compound and 3 to 4 hr after the administration of the test compound or 6 to 7 hr after the administration of the test compound. The percentage of blood pressure depression was calculated by the following equation: Antihypertensive activity (%)={(blood pressure before administration of test compound−blood pressure after administration of test compound)/blood pressure before administration of test compound}×100
Each compound was administered at 30 mg/kg, and the antihypertensive activity (%) was expressed in terms of the mean value of 3 to 4 SHRs and SEM (standard error of the mean).
For data with *, the blood pressure was measured 6 to 7 hr after the administration of the test compound, and, for data with no marks, the blood pressure was measured 3 to 4 hr after the administration of the test compound.

SMILES	Blood pressure depression, % (hydrochloride)	Blood pressure depression, %
Cl.c1ccc(CN2CCC(Nc3ccc4[nH]ncc4c3)CC2)cc1 [Example 127, N-(1-benzyl-4-piperidyl)-N-(1H-5-indazolyl)-amine hydrochloride]	20.4 ± 3.0%	–
CCCN[C@H]1CC[C@@H](Nc2ccc3[nH]ncc3c2)CC1 [Example 243 (syn), N1-(1H-5-Indazolyl)-N4-propyl-1,4-cyclohexanediamine]	–	20.4 ± 5.2%
